What all share (experiment): co-IP; Neuro2A cells co-transfected with the tagged constructs (3 µg DNA each), lysed after 48 h in RIPA buffer (50 mM Tris/HCl pH 8, 100 mM NaCl, 1 mM EDTA, 0.1% SDS, 1% Nonidet P-40, 0.5% sodium deoxycholate); lysate incubated overnight at 4 °C with antibodies (Flag, GFP or c-myc) bound to protein G-Sepharose, washed with RIPA; western blot; bound protein normalised to total protein and to the immunoprecipitated bait

Amino acid sequences for entries named in this document (tags omitted).
UniProt Q60598: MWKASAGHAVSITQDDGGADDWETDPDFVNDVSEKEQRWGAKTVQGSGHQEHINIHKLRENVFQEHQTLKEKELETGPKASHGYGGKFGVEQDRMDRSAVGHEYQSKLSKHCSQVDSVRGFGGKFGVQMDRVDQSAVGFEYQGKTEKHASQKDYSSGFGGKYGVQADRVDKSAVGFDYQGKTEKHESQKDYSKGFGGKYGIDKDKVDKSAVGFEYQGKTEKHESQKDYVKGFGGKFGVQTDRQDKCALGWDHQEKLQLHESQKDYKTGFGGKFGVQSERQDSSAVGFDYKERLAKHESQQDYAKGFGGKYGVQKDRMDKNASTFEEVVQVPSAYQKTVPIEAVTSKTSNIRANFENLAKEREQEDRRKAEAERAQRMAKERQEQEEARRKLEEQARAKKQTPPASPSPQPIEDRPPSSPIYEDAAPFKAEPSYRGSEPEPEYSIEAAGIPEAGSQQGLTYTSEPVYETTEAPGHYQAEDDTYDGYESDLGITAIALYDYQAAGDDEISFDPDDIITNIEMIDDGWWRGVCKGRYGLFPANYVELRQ
UniProt Q8N122: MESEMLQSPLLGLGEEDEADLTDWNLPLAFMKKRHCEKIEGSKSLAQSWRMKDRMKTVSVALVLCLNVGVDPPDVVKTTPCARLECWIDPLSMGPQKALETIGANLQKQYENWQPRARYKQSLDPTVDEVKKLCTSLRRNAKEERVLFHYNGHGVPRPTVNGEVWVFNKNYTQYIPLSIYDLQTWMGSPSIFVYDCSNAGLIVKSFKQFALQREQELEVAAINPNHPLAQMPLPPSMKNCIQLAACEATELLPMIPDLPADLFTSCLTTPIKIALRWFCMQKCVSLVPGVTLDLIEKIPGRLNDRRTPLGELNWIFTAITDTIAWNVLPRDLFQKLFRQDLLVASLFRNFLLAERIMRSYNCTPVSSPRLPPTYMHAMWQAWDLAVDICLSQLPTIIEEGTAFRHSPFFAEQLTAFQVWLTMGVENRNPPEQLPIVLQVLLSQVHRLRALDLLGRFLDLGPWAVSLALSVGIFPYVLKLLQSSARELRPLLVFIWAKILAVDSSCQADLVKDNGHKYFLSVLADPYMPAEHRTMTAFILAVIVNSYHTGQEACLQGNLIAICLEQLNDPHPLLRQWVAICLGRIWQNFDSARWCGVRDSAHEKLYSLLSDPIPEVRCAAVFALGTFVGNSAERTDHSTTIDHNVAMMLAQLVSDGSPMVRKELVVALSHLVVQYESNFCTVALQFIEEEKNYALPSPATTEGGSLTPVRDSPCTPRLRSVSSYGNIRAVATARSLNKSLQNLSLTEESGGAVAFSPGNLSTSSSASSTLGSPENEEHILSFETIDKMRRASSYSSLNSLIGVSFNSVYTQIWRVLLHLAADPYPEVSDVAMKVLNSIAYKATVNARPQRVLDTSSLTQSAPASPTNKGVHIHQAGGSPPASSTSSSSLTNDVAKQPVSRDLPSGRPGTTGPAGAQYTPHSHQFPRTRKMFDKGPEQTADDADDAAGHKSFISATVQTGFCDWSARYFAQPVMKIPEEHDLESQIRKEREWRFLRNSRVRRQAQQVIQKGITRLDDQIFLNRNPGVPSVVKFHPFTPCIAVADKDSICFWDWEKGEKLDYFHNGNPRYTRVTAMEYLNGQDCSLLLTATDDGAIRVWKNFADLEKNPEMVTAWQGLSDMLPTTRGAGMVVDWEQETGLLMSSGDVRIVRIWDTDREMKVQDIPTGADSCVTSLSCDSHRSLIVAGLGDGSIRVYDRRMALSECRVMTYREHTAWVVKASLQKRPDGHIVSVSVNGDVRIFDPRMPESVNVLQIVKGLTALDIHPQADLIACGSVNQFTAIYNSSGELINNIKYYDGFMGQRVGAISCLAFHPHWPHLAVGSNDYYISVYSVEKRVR

Assay [1] deals with T1, GFP-DLGAP4 (wild type human Disks large-associated protein 4) (human) (UniProt Q9Y2H0).
T1 sequence: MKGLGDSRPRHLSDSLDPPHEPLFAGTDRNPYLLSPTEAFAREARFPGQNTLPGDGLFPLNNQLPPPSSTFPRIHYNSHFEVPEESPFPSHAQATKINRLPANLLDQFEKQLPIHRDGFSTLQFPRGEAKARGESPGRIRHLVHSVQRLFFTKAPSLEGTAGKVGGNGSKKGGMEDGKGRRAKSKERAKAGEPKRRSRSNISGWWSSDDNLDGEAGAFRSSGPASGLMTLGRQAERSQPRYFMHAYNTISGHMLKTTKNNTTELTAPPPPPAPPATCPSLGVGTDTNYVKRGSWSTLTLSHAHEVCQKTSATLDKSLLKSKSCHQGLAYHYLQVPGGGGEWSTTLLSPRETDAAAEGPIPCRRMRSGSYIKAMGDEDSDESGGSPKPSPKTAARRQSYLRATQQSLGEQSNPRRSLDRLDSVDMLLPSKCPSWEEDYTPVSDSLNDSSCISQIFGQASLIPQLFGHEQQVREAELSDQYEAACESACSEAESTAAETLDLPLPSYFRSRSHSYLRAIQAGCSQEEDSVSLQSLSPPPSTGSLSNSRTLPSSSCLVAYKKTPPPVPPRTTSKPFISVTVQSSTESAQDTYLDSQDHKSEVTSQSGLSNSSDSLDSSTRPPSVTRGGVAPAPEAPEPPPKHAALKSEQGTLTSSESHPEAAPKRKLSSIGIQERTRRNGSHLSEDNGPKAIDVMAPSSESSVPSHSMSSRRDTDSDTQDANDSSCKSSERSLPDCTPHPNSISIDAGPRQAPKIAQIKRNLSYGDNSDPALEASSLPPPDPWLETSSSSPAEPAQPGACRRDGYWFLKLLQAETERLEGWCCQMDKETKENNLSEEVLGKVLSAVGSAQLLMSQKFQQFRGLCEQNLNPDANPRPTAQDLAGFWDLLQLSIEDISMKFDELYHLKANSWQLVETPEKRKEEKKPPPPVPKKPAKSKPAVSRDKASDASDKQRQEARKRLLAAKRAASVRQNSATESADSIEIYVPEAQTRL

Assay [2] has as its target T2, Flag-DLGAP4 (wild type human Disks large-associated protein 4) (human) (UniProt Q9Y2H0).
T2 sequence: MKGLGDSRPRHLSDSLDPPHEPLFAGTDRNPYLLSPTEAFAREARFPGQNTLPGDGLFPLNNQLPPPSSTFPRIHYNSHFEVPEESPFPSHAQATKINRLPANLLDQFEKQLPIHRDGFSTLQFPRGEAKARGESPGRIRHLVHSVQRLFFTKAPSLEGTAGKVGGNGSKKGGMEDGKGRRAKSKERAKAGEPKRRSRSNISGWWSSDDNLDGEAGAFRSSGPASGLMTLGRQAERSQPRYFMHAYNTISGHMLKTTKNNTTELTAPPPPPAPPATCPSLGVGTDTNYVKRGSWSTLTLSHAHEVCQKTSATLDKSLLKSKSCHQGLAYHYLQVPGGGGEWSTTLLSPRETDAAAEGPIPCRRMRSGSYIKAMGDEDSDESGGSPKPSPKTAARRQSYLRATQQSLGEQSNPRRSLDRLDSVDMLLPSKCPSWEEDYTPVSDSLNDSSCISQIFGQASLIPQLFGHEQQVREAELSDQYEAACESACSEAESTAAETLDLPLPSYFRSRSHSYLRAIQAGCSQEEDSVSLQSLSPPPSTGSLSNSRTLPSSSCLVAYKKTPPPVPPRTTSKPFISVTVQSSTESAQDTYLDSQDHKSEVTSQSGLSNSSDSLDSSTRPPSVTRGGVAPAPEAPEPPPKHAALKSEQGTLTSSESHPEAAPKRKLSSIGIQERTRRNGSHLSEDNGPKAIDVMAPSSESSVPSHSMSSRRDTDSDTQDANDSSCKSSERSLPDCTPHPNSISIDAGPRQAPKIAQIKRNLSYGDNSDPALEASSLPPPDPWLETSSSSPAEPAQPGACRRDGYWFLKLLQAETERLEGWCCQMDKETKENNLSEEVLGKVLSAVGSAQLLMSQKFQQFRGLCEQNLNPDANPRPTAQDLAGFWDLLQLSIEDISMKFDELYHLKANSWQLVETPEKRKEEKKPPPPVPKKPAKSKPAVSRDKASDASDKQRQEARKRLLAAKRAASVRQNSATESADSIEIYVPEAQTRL

Assay [3] concerns the target Flag-cortactin (mouse, pcDNA3-Flag-cortactin) (mouse) (UniProt Q60598).
Assay [4] addresses T2, Flag-DLGAP4 (wild type human Disks large-associated protein 4) (human). This is another data set of the same source.

Like-named read-outs stand apart in the source and are kept apart here. No constants are given. Whether binding was seen depends on the method and setting. In cells and extracts the contact can be indirect. Some binding calls cover weakened binding; strength is not graded here. Tags and fused reporters may be left off the sequences shown.

This is an account of results in publication PMC9117333.

With “Flag-cortactin (mouse, pcDNA3-Flag-cortactin) (from UniProt Q60598 1-546)”, in assay [1], the binding result is listed as “binds”. As for “HA-Raptor (human, HA-CMV-Raptor) (from UniProt Q8N122 1-1335)”, the binding entry in assay [2] is recorded as “binds”.

B1: GFP-DLGAP4 (wild type human Disks large-associated protein 4) (protein, UniProt Q9Y2H0-1 1-989)
chain: MKGLGDSRPRHLSDSLDPPHEPLFAGTDRNPYLLSPTEAFAREARFPGQNTLPGDGLFPLNNQLPPPSSTFPRIHYNSHFEVPEESPFPSHAQATKINRLPANLLDQFEKQLPIHRDGFSTLQFPRGEAKARGESPGRIRHLVHSVQRLFFTKAPSLEGTAGKVGGNGSKKGGMEDGKGRRAKSKERAKAGEPKRRSRSNISGWWSSDDNLDGEAGAFRSSGPASGLMTLGRQAERSQPRYFMHAYNTISGHMLKTTKNNTTELTAPPPPPAPPATCPSLGVGTDTNYVKRGSWSTLTLSHAHEVCQKTSATLDKSLLKSKSCHQGLAYHYLQVPGGGGEWSTTLLSPRETDAAAEGPIPCRRMRSGSYIKAMGDEDSDESGGSPKPSPKTAARRQSYLRATQQSLGEQSNPRRSLDRLDSVDMLLPSKCPSWEEDYTPVSDSLNDSSCISQIFGQASLIPQLFGHEQQVREAELSDQYEAACESACSEAESTAAETLDLPLPSYFRSRSHSYLRAIQAGCSQEEDSVSLQSLSPPPSTGSLSNSRTLPSSSCLVAYKKTPPPVPPRTTSKPFISVTVQSSTESAQDTYLDSQDHKSEVTSQSGLSNSSDSLDSSTRPPSVTRGGVAPAPEAPEPPPKHAALKSEQGTLTSSESHPEAAPKRKLSSIGIQERTRRNGSHLSEDNGPKAIDVMAPSSESSVPSHSMSSRRDTDSDTQDANDSSCKSSERSLPDCTPHPNSISIDAGPRQAPKIAQIKRNLSYGDNSDPALEASSLPPPDPWLETSSSSPAEPAQPGACRRDGYWFLKLLQAETERLEGWCCQMDKETKENNLSEEVLGKVLSAVGSAQLLMSQKFQQFRGLCEQNLNPDANPRPTAQDLAGFWDLLQLSIEDISMKFDELYHLKANSWQLVETPEKRKEEKKPPPPVPKKPAKSKPAVSRDKASDASDKQRQEARKRLLAAKRAASVRQNSATESADSIEIYVPEAQTRL
B1: the binding result in assay [3] is recorded as “binds”.

B2: GFP-GKAP (mouse Dlgap1, pEGFP-C1-GKAP) (protein, UniProt Q9D415 1-992)
chain: MKGLSGSRSHHHGITCEAACDSLSHHSDHKPYLLSPVDHHPADHPYYTQRNSFQAECVGPFSDPLASSTFPRRHYTSQQELKDESALVPRTLATKANRLPTNLLDQFERQLPLSRDGYHTLQYKRTAVEHRSDSPGRIRHLVHSVQKLFTKSHSLEGPSKGSVNGGKASPDESQTLRYGKRSKSKERRSESKARSNASNASPTSPSWWSSDDNLDGDMCLYHTPSGVMTMGRCPDRSASQYFMEAYNTISEQAVKASRSNNDIKCSTCANLPVTLDAPLLKKSAWSSTLTVSRAREVYQKASVNMDQAMVKSEACQQERSCQYLQVPQDEWSGYTPRGKDDEIPCRRMRSGSYIKAMGDEDSGDSDTSPKPSPKVAARRESYLKATQPSLTELTTLKISNEHSPKLQIRSHSYLRAVSEVSINRSLDSLDPAGLLTSPKFRSRNESYMRAMSTISQVSEMEVNGQFESVCESVFSELESQAVEALDLPLPGCFRMRSHSYVRAIEKGCSQDDECVSLRSSSPPRTTTTVRTIQSSTGVIKLSSAVEVSSCITTYKKTPPPVPPRTTTKPFISITAQSSTESAQDAYMDGQGQRGDMISQSGLSNSTESLDSMKALTAAIEAANAQIHGPASQHMGSNAAAVTTTTTIATVTTEDRKKDFKKNRCLSIGIQVDDAEEPEKMAESKTSNKFQSVGVQVEEEKCFRRFTRSNSVTTAVQADLDFHDNLENSLESIEDNSCPGPMARQFSRDASTSTVSIQGSGNHYHACAADDDFDTDFDPSILPPPDPWIDSITEDPLEAVQRSVCHRDGHWFLKLLQAERDRMEGWCKLMEREERENNLPEDILGKIRTAVGSAQLLMAQKFYQFRELCEENLNPNAHPRPTSQDLAGFWDMLQLSIENISMKFDELHQLKANNWKQMDPLDKKERRAPPPVPKKPAKGPAPLIRERSLESSQRQEARKRLMAAKRAASVRQNSATESAESIEIYIPEAQTRL
With B2, the binding entry in assay [4] is listed as “binds”.

B3: GFP-LGN (mouse, pEGFP-C1-LGN; coded by the GPSM2 gene) (protein, UniProt Q8VDU0 1-679)
chain: MEGNLISMREDHSFHVRYRMEASCLELALEGERLCKSGDCRAGVSFFEAAVQVGTEDLKTLSAIYSQLGNAYFYLHDYAKALEYHHHDLTLARTIGDQLGEAKASGNLGNTLKVLGNFDEAIVCCQRHLDISRELNDKVGEARALYNLGNVYHAKGKSFGCPGPQDTGEFPEDVRNALQAAVDLYEENLSLVTALGDRAAQGRAFGNLGNTHYLLGNFRDAVIAHEQRLLIAKEFGDKAAERRAYSNLGNAYIFLGEFETASEYYKKTLLLARQLKDRAVEAQSCYSLGNTYTLLQDYEKAIDYHLKHLAIAQELKDRIGEGRACWSLGNAYTALGNHDQAMHFAEKHLEISREVGDKSGELTARLNLSDLQMVLGLSYSTNNSMMSENIEIDGSLHGAGAKLGRRHSMENLELMKLTPEKVPNWNSEILAKQKPLIAKPSAKLLFVNRLKGKKYKSGSACTKVLQDASNSVDHRAPRSQKKISSDTIGDEGFFDLLRRFQSNRMDDQRCHLQGNCRTTSTAAASATPKLMKAPSVSVVSPNTDEFLDLLASSQSRRLDDQRASFSNLPGLRLTKGNSPSVLERLMTNDKKEPDEDFFDILVKCQGSRLDDQRCAPPSAATKGPTVPDEDFFSLILRSQAKRMDEQRVLLQRDPNRDSEFGLKELLQNNALLEFKHSGK
As for B3, the binding entry in assay [4] is recorded as “binds”.
